{"source": "PubChem BioAssay AID652053", "about": "(Broad Institute, 2013)", "note": "In all, about 1,300 compounds went through this assay and about 930 (72%) were called active.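 The calls were made as follows: active = fitted curve reaches 40% activation signal increase at or below the top valid tested concentration in every replicate test; inconclusive = replicate tests disagree in their calls; inactive = all replicate tests inactive, including effects opposite the expected signal rise.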 The set was probably picked from earlier hits. This is a selection; strong and weak results do not stand in their true shares. Measured potencies and affinities stand elsewhere.", "data": [{"assay": "miR-122 inhibitors in Huh7 reporter cells, dose response, cell-based, Huh7 psiCHECK-miR122, Renilla luciferase, cherry-pick (AID 652053)", "conditions": "48 h; at 35 µM (top of the series)", "values": [{"smiles": "Cc1oc2ccc(OC(=O)N(C)C)cc2c1C(=O)OC(C)C", "activation (miR-122 inhibition)": "inactive: 5.98%"}, {"smiles": "COc1cc2c(c(OC)c1OC)-c1ccc(O)c(=O)cc1C(NC(C)=O)CC2", "note": "(configuration not stated)", "activation (miR-122 inhibition)": "inactive: 25.9%"}]}]}
